Assay results published in US7829575B2, “Methods for treating androgen receptor related disorders” (University of Cincinnati, priority 2006, dated 2010).
At least one compound was matched to its structure with a doubt left.

How the values were obtained:
Format in all cases: cell-based
LNCaP cells = experiment: PSA secretion, ELISA of culture supernatant
Method: PSA in the culture supernatant is determined by using an enzyme-linked immunosorbent assay (ELISA) kit. PSA levels are normalized by cell density.

LNCaP-Nilut-R cells [1] = experiment: Growth of Nilut-refractory LNCaP cells, MTT; conditions: 10 μM, 4 days, MTT (FIG. 2F)
From the text: (§1) Viable cells are stained with MTT (3-(4,5-dimethylthiazol-2-yl)-2,5-diphenyltetrazolium bromide). *, **, and *** designate p<0.05, <0.01, and 0.001, respectively, compared with controls.

LNCaP-Nilut-R cells [2] = experiment: PSA secretion, ELISA of culture supernatant; conditions: 1 nM DHT, 10 μM, 48 hr (FIG. 5D)
Method: (§2) For the following discussion, see FIG. 5, where androgen-starved LNCaP, LNCaP-Flut-R, or LNCaP-Nilut-R cells are plated into 96-well plates at 2×10^4 cells/wells in SMEM and treated for 48 hr. PSA in the culture supernatant is determined by using an enzyme-linked immunosorbent assay (ELISA) kit. PSA levels are normalized by cell density. […] The DHT-induced production of PSA is reduced by approximately 50% in cells treated with 5 μM of DL3 (FIG. 5B). […] PSA production is elevated in LNCaP-Flut-R and LNCaP-Nilut-R cells compared with that in their parental cells (FIG. 5D).

LNCaP-Flut-R cells [3] = experiment: PSA secretion, ELISA of culture supernatant; conditions: 1 nM DHT, 10 μM, 48 hr (FIG. 5D)
Method: as §2

LNCaP-ARR2-GFP cells = experiment: AR-regulated GFP expression in LNCaP-ARR2-GFP cells; conditions: SMEM, absence of DHT; DL3 at 25 nM or 20 μM
LNCaP-Flut-R cells [4] = experiment: Growth of Flut-refractory LNCaP cells, MTT; conditions: 10 μM, 4 days, MTT (FIG. 2F)
From the text: as §1

AR = AR nuclear localization, immunostaining; conditions: PC-3AR and LNCaP cells, SMEM, 20 μM, with or without 1 nM DHT, 2 h
From the text: AR nuclear translocation is a necessary step for AR action. […] AR in the cells were stained with an antibody to AR and detected with Texas Red-labeled secondary antibody. […] AR is translocated to the nuclei upon treatment with DHT. […] Thus, DL3 binds to AR.

## CC(C)C(=O)Nc1ccc([N+](=O)[O-])c(C(F)(F)F)c1 [Flut, Flutamide]
LNCaP cells; 1 nM DHT, 10 μM, 48 hr (FIG. 5D)
  PSA production in parental LNCaP cells: inhibits PSA production
LNCaP cells; 20 μM, 1 nM DHT, 48 hr
  DHT-induced PSA production: reduce DHT-induced PSA production
LNCaP cells; 20 μM, no DHT, 48 hr
  PSA production under androgen-free conditions: stimulates PSA production
LNCaP-Nilut-R cells [1]
  growth of LNCaP-Nilut-R cells: moderately inhibits growth
LNCaP-Nilut-R cells [2]
  PSA production in LNCaP-Nilut-R cells: the extent of inhibition is reduced
LNCaP-Flut-R cells [3]
  PSA production in LNCaP-Flut-R cells: the extent of inhibition is reduced
LNCaP-ARR2-GFP cells
  GFP expression (AR agonist activity): DHT-independent expression of GFP is also observed
LNCaP-Flut-R cells [4]
  growth of LNCaP-Flut-R cells: promotes growth
AR
  nuclear localization of AR: partially induce and enhance DHT-induced nuclear localization of AR
